Results reported in PMC5913336, “True equilibrium measurement of transcription factor-DNA binding affinities using automated polarization microscopy”.

Assays:
Bicoid DBD-GST (Bcd) [1] = target: T1, Bicoid DBD-GST (Bcd) (UniProt P09081); assay: fluorescence anisotropy; conditions: labeled reference, displaced by competitors; HiP-FA: 33 mM phosphate pH 7.0, 90 mM NaCl, 0.01% Tween 20, 0.1 mM DTT, 0.5% agarose; conventional titration and EMSA: 20 mM Tris-acetate pH 7.0, 50 nM (sic) NaCl; recombinant protein; protein details: N-terminal GST; label: 5' Cy5 on strand 1
T1 sequence (looked up, limits assumed): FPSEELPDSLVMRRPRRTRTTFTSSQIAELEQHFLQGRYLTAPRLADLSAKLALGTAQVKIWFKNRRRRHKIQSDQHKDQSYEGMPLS

Bicoid DBD-GST (Bcd) [2] = target: T1, Bicoid DBD-GST (Bcd); assay: competitive fluorescence anisotropy (HiP-FA); conditions: near-complete loss of binding; HiP-FA: 33 mM phosphate pH 7.0, 90 mM NaCl, 0.01% Tween 20, 0.1 mM DTT, 0.5% agarose; conventional titration and EMSA: 20 mM Tris-acetate pH 7.0, 50 nM (sic) NaCl; recombinant protein; protein details: N-terminal GST

Row | Sequence | binding result (Bicoid DBD-GST (Bcd) [1]) | pKd (Bicoid DBD-GST (Bcd) [2])
1 | TCGACGCTAAGCTGTA (double strand) [Bcd Cy5 reference DNA] | binds | –
2 | TCGACTCCACAGCCTA (double strand) [Bcd heavily mutated competitor] | – | 5.66

pKd: −log10 of the molar value. Construct, isoform or probe ends are uncertain for at least one entry. For some assays here: At least one verdict rests on a figure or table, not on a statement of the authors. Where a protein sequence is shown, tags need not be part of it.
